The text below walks through data of PMC11997338.

No constants are given. Whether binding was seen depends on the method and setting. In cells and extracts the contact can be indirect. Some results given as binding are weak or reduced against the parent protein; the word gives no strength.

The target of this assay is T1, endogenous endoglin (ENG) of mouse dental papilla cells (mouse (endogenous in postnatal 2 mouse molars)) (UniProt Q63961).
T1 sequence: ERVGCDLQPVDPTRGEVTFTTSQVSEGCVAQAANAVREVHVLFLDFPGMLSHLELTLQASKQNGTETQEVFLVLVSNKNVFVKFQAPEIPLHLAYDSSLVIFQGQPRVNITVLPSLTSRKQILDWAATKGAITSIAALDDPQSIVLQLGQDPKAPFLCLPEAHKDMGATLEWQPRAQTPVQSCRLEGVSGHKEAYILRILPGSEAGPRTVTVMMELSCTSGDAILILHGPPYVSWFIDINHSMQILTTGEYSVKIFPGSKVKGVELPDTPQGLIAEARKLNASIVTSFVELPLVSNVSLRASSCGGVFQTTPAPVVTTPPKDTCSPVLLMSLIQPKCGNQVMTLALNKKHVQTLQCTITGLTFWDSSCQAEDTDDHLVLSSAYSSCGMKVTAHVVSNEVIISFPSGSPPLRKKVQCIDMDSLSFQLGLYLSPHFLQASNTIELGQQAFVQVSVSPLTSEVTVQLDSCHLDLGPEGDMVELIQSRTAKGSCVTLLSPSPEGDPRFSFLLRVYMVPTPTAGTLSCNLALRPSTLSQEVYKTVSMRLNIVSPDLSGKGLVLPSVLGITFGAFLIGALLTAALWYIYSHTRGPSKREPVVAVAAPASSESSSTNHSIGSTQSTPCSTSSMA
Briefly: proximity ligation; 5-μm sections of postnatal 2 mouse molars; anti-DSP and anti-ENG antibodies, rabbit and goat IgG as isotype controls; Duolink in situ PLA.

B1: endogenous dentin sialoprotein (DSP) of mouse molars (protein, UniProt P97399 18-451)
chain: IPVPQLVPLERDIVENSVAVPLLTHPGTAAQNELSINSTTSNSNDSPDGSEIGEQVLSEDGYKRDGNGSESIHVGGKDFPTQPILVNEQGNTAEEHNDIETYGHDGVHARGENSTANGIRSQVGIVENAEEAESSVHGQAGQNTKSGGASDVSQNGDATLVQENEPPEASIKNSTNHEAGIHGSGVATHETTPQREGLGSENQGTEVTPSIGEDAGLDDTDGSPSGNGVEEDEDTGSGDGEGAEAGDGRESHDGTKGQGGQSHGGNTDHRGQSSVSTEDDDSKEQEGFPNGHNGDNSSEENGVEEGDSTQATQDKEKLSPKDTRDAEGGIISQSEACPSGKSQDQGIETEGPNKGNKSIITKESGKLSGSKDSNGHQGVELDKRNSPKQGESDKPQGTAEKSAAHSNLGHSRIGSSSNSDGHDSYEFDDESMQG
Turning to B1, the binding entry is recorded as “binds”.
